Reference: PubChem BioAssay AID1259254 (NCATS, 2017)

- Purpose: 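Gene knock-downs that lead to re-replication, shown by excess G2 DNA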 (primary screen)
- System: human HCT116 colorectal cancer cells
- Reagents: single siRNA against human genes
- Time to read-out: 3 days
- Measurement: 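Imaged Hoechst DNA stain sorts each cell into a cycle phase by DNA amount; per plate, G2 fraction set to 0% for non-targeting and 100% for GMNN siRNA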
- Reading the numbers: G2 robust z-score and G2 cells, % of GMNN control: higher = more G2 cells, more excess DNA replication
- Rule for the call: 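Active siRNAs have a G2 robust z of 5 or more median absolute deviations over the median, which in these data means about 38% or higher of GMNN control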
This is one part, drawn at random, of about 59,000 deposited reagents. Of all reagents, about 1,550 (2.6%) are marked active. 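G2 share is only a proxy for re-replication; each gene was hit by three separate siRNAs, and active genes were retested.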 Unmarked entries are inactive. Reagents against one gene are numbered here. Not all columns of the deposit are shown. The record does not give: the amount of reagent.

For CUZD1 (CUB and zona pellucida like domains 1) #1, how do the results read?
G2 robust z-score: 1.73; G2 cells, % of GMNN control: 15.2

For CUZD1 (CUB and zona pellucida like domains 1) #2, what was measured?
G2 robust z-score: 1.01; G2 cells, % of GMNN control: 10.1

With CUZD1 (CUB and zona pellucida like domains 1) #3, what does the deposit list?
G2 robust z-score: 0.201; G2 cells, % of GMNN control: 4.38

With SLC41A1 #1, what does the deposit list?
G2 robust z-score: -0.0348; G2 cells, % of GMNN control: 2.72

What did the screen give for SLC41A1 #2?
G2 robust z-score: 1.72; G2 cells, % of GMNN control: 15.1

How did the screen score SLC41A1 #3?
G2 robust z-score: 0.249; G2 cells, % of GMNN control: 4.72

For ATAT1 (alpha tubulin acetyltransferase 1) #1, what was measured?
G2 robust z-score: 0.864; G2 cells, % of GMNN control: 9.04

What is on record for ATAT1 (alpha tubulin acetyltransferase 1) #2?
G2 robust z-score: 1.78; G2 cells, % of GMNN control: 15.5

For ATAT1 (alpha tubulin acetyltransferase 1) #3, how do the results read?
G2 robust z-score: 0.294; G2 cells, % of GMNN control: 5.03

Single entries from above:
Result of SLC41A1 #2 in “G2 robust z-score”: 1.72
Under “G2 cells, % of GMNN control”, CUZD1 (CUB and zona pellucida like domains 1) #2 shows 10.1

Next records follow:
For RSPO2 (R-spondin 2) #1, what does the deposit list?
G2 robust z-score: 1.09; G2 cells, % of GMNN control: 10.6

For RSPO2 (R-spondin 2) #2, how do the results read?
G2 robust z-score: -0.541; G2 cells, % of GMNN control: -0.837

For RSPO2 (R-spondin 2) #3, what does the deposit list?
G2 robust z-score: 0.298; G2 cells, % of GMNN control: 5.06

For GLA (galactosidase alpha) #1, what does the deposit list?
G2 robust z-score: 0.0187; G2 cells, % of GMNN control: 3.1

What is on record for GLA (galactosidase alpha) #2?
G2 robust z-score: -0.504; G2 cells, % of GMNN control: -0.577

With GLA (galactosidase alpha) #3, what does the deposit list?
G2 robust z-score: -0.763; G2 cells, % of GMNN control: -2.4

With OR1B1 (olfactory receptor family 1 subfamily B member 1) #1, what does the deposit list?
G2 robust z-score: -0.0169; G2 cells, % of GMNN control: 2.85

With OR1B1 (olfactory receptor family 1 subfamily B member 1) #2, how do the results read?
G2 robust z-score: -0.782; G2 cells, % of GMNN control: -2.54

How did the screen score OR1B1 (olfactory receptor family 1 subfamily B member 1) #3?
G2 robust z-score: 2.54; G2 cells, % of GMNN control: 20.8

What did the screen give for TCP10L3 (t-complex 10 like 3 (pseudogene)) #1?
G2 robust z-score: -1.65; G2 cells, % of GMNN control: -8.63

With TCP10L3 (t-complex 10 like 3 (pseudogene)) #2, what does the deposit list?
G2 robust z-score: -0.279; G2 cells, % of GMNN control: 1

How did the screen score TCP10L3 (t-complex 10 like 3 (pseudogene)) #3?
G2 robust z-score: 2.33; G2 cells, % of GMNN control: 19.4

With GHR (growth hormone receptor) #1, what does the deposit list?
G2 robust z-score: 6.87 (active); G2 cells, % of GMNN control: 51.3

With GHR (growth hormone receptor) #2, how do the results read?
G2 robust z-score: -0.215; G2 cells, % of GMNN control: 1.46

For GHR (growth hormone receptor) #3, how do the results read?
G2 robust z-score: -0.778; G2 cells, % of GMNN control: -2.5
